In PMC10251205 one finds binding data, which are given here for three molecules.

Amino acid sequences for entries named in this document (tags omitted). Residues count along the entry.
UniProt P25942, residues 21-277: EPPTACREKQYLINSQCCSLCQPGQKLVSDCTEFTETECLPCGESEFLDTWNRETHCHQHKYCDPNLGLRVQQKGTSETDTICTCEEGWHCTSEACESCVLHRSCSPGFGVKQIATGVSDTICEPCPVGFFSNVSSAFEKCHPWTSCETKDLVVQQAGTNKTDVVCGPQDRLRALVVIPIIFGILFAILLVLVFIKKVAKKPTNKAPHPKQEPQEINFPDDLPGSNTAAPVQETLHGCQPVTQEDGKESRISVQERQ
UniProt Q96EP0: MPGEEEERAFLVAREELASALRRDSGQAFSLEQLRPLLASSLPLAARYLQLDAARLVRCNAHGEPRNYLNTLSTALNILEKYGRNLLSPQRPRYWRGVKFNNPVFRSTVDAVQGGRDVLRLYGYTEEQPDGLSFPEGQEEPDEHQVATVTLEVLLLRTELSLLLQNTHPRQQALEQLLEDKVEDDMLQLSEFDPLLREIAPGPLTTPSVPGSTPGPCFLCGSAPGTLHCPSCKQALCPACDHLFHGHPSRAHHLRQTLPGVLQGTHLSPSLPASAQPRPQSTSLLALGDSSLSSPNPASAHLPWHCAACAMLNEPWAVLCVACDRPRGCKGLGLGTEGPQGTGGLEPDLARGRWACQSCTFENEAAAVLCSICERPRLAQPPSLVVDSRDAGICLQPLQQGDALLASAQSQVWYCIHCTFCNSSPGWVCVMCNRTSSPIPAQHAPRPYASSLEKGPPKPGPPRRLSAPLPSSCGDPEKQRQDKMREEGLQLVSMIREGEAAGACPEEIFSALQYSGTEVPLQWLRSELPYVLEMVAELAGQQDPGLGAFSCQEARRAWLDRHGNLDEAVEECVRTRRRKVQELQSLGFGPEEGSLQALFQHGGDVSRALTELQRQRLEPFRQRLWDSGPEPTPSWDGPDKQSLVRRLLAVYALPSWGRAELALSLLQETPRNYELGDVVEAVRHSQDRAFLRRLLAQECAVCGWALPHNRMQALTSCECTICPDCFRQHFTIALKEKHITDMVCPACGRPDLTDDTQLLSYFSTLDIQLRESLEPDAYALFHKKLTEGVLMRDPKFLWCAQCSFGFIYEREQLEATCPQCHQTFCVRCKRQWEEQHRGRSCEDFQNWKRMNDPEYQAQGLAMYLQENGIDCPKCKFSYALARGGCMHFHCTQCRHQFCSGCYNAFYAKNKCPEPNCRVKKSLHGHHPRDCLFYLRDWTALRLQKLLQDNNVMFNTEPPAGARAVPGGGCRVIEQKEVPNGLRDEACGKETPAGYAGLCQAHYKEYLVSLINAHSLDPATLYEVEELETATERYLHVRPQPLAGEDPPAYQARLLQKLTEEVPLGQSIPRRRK

Results are given in words; binding and its absence hold for the method and conditions named. Binding seen in cells or lysates may run through a third protein. Some entries that bind do so weakly or less than the wild type.

Assay [1] has as its target CD40 (human (endogenous in monocyte-derived iDCs)) (UniProt P25942). Nature of the assay: co-IP; iDCs stimulated with HERA-CD40L or Selicrelumab (500 ng/ml, 15 min), lysed; CD40 signaling complex captured through the agonist by goat anti-human IgG-Fc on Protein G Dynabeads; blots for the associated proteins.
For assay [2], the target named is T1, TRAF2 (human (endogenous in monocyte-derived iDCs)) (UniProt Q12933).
T1 sequence: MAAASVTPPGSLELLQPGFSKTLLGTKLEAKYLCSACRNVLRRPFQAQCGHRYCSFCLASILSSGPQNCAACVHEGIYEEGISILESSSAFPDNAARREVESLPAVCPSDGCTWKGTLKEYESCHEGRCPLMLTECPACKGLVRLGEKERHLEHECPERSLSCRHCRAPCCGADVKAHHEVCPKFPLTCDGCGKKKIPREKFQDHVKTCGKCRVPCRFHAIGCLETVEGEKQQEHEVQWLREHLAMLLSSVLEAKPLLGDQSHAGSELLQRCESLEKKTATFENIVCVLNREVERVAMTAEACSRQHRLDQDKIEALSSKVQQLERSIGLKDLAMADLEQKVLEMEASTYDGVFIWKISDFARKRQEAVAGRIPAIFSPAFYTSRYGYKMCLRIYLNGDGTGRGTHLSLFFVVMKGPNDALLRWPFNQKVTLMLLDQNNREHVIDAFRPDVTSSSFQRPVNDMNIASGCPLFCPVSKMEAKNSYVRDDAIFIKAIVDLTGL
Nature of the assay: co-IP; IP of TRAF2 with mouse anti-human TRAF2 on Protein G Dynabeads from lysates of iDCs stimulated with Selicrelumab or HERA-CD40L (15 min); goat anti-human IgG-F(ab)2 fragment added to the lysates.

For assay [3], the target named is CD40 (human (endogenous in monocyte-derived iDCs)) (UniProt P25942). Kind of assay: condition: only iDCs stimulated with Selicrelumab (500 ng/ml) instead of HERA-CD40L; co-IP; as a3, iDCs stimulated with Selicrelumab only (500 ng/ml, 15 min).

Turning to “HOIP (RNF31) (from UniProt Q96EP0 1-1072) (enzyme)”, in assay [1], the binding entry is on record as “binds”.

B1: TRAF1 (protein, UniProt Q13077 1-416)
chain: MASSSGSSPRPAPDENEFPFGCPPTVCQDPKEPRALCCAGCLSENPRNGEDQICPKCRGEDLQSISPGSRLRTQEKAHPEVAEAGIGCPFAGVGCSFKGSPQSVQEHEVTSQTSHLNLLLGFMKQWKARLGCGLESGPMALEQNLSDLQLQAAVEVAGDLEVDCYRAPCSESQEELALQHFMKEKLLAELEGKLRVFENIVAVLNKEVEASHLALATSIHQSQLDRERILSLEQRVVELQQTLAQKDQALGKLEQSLRLMEEASFDGTFLWKITNVTRRCHESACGRTVSLFSPAFYTAKYGYKLCLRLYLNGDGTGKRTHLSLFIVIMRGEYDALLPWPFRNKVTFMLLDQNNREHAIDAFRPDLSSASFQRPQSETNVASGCPLFFPLSKLQSPKHAYVKDDTMFLKCIVETST
Consider B1, for which the binding entry in assay [1] and in assay [2] was “binds” each time.

B2: phosphorylated TBK1 (enzyme, UniProt Q9UHD2 1-729)
chain: MQSTSNHLWLLSDILGQGATANVFRGRHKKTGDLFAIKVFNNISFLRPVDVQMREFEVLKKLNHKNIVKLFAIEEETTTRHKVLIMEFCPCGSLYTVLEEPSNAYGLPESEFLIVLRDVVGGMNHLRENGIVHRDIKPGNIMRVIGEDGQSVYKLTDFGAARELEDDEQFVSLYGTEEYLHPDMYERAVLRKDHQKKYGATVDLWSIGVTFYHAATGSLPFRPFEGPRRNKEVMYKIITGKPSGAISGVQKAENGPIDWSGDMPVSCSLSRGLQVLLTPVLANILEADQEKCWGFDQFFAETSDILHRMVIHVFSLQQMTAHKIYIHSYNTATIFHELVYKQTKIISSNQELIYEGRRLVLEPGRLAQHFPKTTEENPIFVVSREPLNTIGLIYEKISLPKVHPRYDLDGDASMAKAITGVVCYACRIASTLLLYQELMRKGIRWLIELIKDDYNETVHKKTEVVITLDFCIRNIEKTVKVYEKLMKINLEAAELGEISDIHTKLLRLSSSQGTIETSLQDIDSRLSPGGSLADAWAHQEGTHPKDRNVEKLQVLLNCMTEIYYQFKKDKAERRLAYNEEQIHKFDKQKLYYHATKAMTHFTDECVKKYEAFLNKSEEWIRKMLHLRKQLLSLTNQCFDIEEEVSKYQEYTNELQETLPQKMFTASSGIKHTMTPIYPSSNTLVEMTLGMKKLKEEMEGVVKELAENNHILERFGSLTMDGGLRNVDCL
modifications: phosphorylated, site not given
In the case of B2, the binding entry is reported as “binds” in assay [1], “binds” in assay [2] and “no binding” in assay [3].
